Experimental data published in PMC10406714.
No constants are given. Whether binding was seen depends on the method and setting. Binding seen in cells or lysates may run through a third protein. Some results given as binding are weak or reduced against the parent protein; the word gives no strength.

Sequences of proteins named here, by UniProt entry; tags and fusion partners are left off.
UniProt P25963: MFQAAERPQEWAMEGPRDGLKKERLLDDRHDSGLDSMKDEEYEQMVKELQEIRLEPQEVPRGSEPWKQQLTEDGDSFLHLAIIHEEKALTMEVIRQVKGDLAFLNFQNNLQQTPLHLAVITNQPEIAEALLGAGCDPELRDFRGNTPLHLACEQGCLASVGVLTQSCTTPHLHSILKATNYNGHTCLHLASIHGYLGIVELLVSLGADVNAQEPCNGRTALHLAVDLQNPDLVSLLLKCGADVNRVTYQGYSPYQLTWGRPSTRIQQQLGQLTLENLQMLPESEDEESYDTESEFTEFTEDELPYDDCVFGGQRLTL

Target: T1, TRIM64 (human) (UniProt A6NGJ6)
T1 sequence: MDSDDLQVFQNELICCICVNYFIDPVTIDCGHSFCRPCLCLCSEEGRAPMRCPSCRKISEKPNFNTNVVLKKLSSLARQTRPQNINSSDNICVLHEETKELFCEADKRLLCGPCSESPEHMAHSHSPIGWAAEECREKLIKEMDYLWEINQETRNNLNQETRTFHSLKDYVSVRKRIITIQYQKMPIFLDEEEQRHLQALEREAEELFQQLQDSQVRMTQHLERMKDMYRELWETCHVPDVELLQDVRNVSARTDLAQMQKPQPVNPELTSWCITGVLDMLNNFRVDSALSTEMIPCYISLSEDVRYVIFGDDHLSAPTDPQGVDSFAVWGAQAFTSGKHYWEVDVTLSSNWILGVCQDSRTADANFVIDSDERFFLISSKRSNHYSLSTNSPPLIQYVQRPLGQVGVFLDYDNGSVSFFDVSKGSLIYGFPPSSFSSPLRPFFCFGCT
Assay: co-IP; cell lysates in RIPA buffer (1 mM MgCl2, 100 mM NaCl, 1 mM DTT); antibodies against IκBα, TRIM64 or control IgG with protein A/G magnetic beads, 120 min at 4 °C; immunoblot

binding: binds
Substance: IκBα (from UniProt P25963 1-317)
